{
  "source": "patent US5061729A",
  "about": "“Pharmaceutical composition and process for preparing the same” (priority 1988, dated 1991)",
  "origin": "cited, not measured here",
  "conditions": "with sulfhydryl-containing compounds, particularly acetylcysteine; cited from earlier work",
  "data": [
    {"smiles": "CC1=C(C(=O)O)N2C(=O)[C@@H](NC(=O)[C@H](N)c3ccccc3)[C@H]2SC1", "note": "[cephalexin]", "values": [
      {"measurement": "influence of sulfhydryl-containing compounds on absorption from the stomach", "result": "certain but not significant extent of retardation"}
    ]}
  ]
}
